These results are taken from PMC8660824.

Sequences of proteins named here, by UniProt entry; tags and fusion partners are left off.
UniProt Q14980: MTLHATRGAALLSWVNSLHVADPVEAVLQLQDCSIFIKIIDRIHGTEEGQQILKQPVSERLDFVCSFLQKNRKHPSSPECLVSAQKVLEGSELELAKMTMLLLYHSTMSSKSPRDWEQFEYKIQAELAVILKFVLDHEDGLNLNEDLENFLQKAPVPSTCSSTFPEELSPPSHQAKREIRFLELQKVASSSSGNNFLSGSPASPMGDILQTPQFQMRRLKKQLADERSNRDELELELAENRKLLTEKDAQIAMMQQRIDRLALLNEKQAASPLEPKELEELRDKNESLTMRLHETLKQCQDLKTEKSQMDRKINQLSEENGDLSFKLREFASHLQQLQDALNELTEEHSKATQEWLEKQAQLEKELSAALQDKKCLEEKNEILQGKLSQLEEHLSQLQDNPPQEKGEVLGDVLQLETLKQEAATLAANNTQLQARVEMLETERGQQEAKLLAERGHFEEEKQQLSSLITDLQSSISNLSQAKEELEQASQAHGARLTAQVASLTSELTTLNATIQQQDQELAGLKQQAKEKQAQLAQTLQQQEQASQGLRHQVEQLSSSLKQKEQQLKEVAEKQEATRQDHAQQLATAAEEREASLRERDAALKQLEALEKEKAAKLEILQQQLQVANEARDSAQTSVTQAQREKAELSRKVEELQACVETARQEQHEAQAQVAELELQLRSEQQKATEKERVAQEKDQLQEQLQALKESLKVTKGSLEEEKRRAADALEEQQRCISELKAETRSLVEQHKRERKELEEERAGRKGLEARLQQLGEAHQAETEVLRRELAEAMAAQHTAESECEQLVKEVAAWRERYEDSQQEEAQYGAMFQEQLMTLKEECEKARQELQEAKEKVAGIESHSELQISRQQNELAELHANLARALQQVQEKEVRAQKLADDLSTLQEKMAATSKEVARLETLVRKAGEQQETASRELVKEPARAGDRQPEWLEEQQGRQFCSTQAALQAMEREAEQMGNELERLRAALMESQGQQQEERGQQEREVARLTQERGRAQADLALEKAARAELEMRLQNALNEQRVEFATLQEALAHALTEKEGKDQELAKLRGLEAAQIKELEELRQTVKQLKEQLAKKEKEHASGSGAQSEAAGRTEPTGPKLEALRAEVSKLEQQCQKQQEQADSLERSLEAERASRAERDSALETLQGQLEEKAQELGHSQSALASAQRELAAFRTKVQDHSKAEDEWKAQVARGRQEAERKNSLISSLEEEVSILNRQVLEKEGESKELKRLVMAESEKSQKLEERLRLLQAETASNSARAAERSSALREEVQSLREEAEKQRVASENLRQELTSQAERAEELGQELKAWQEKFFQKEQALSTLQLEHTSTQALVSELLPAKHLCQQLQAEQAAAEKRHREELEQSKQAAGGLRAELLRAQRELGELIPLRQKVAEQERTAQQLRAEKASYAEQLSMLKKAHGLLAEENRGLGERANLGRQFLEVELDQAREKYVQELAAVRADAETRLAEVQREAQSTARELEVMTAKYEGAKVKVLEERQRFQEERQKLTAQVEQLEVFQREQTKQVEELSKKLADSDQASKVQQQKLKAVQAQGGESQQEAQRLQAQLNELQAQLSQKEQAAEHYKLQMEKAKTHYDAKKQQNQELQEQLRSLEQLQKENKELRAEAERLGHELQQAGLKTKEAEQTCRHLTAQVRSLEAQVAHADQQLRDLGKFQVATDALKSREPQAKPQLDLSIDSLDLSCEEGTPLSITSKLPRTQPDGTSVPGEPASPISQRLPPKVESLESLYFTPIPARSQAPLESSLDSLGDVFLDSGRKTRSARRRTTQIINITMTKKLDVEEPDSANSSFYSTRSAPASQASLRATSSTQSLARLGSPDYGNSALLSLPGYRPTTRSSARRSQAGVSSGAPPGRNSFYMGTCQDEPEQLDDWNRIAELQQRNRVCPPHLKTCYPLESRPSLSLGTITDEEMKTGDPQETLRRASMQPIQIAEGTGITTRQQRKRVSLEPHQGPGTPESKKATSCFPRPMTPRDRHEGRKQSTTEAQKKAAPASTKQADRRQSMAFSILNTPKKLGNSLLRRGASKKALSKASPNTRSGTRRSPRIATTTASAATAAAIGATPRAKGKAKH
UniProt O00139: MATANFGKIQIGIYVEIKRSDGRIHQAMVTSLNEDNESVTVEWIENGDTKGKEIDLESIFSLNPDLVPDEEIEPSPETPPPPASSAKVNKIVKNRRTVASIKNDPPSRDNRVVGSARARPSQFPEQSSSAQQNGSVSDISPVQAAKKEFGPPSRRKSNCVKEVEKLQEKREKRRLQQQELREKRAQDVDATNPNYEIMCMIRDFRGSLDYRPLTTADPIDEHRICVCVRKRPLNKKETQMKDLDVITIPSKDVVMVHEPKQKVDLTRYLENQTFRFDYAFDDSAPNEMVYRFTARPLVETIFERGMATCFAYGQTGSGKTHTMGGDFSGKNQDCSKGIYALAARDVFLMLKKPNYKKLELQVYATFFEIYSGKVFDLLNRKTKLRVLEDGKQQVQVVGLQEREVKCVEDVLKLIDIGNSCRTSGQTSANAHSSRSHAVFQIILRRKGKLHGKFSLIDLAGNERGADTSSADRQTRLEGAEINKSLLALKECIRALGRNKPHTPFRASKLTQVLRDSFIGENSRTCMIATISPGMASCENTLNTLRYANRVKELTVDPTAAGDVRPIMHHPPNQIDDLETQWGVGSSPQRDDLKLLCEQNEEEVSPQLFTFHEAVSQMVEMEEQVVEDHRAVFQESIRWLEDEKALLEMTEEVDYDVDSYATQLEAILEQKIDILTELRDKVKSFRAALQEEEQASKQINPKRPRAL

The target of assay [1] is GFP-NuMA (Nuclear Mitotic Apparatus protein, full-length) (human) (UniProt Q14980). Briefly: affinity purification with mass spectrometry; HEK293T cells transfected with GFP-NuMA, IP with GFP-Trap beads, SDS-PAGE, trypsin digest, Q Exactive Plus.
Assay [2] shares this target. The description is as above. The source holds these as a separate data set.

Read-outs that look alike come from different tables or passages of the source. No constants are given. Whether binding was seen depends on the method and setting. In cells and extracts the contact can be indirect. Here binding means that the protein was enriched with, or labelled near, the bait; the list need not be complete.

As to Kif2A (from UniProt O00139 1-706), in assay [1], the binding result is “binds”.

B1: KifC1 (protein, UniProt Q9BW19 1-673)
chain: MDPQRSPLLEVKGNIELKRPLIKAPSQLPLSGSRLKRRPDQMEDGLEPEKKRTRGLGATTKITTSHPRVPSLTTVPQTQGQTTAQKVSKKTGPRCSTAIATGLKNQKPVPAVPVQKSGTSGVPPMAGGKKPSKRPAWDLKGQLCDLNAELKRCRERTQTLDQENQQLQDQLRDAQQQVKALGTERTTLEGHLAKVQAQAEQGQQELKNLRACVLELEERLSTQEGLVQELQKKQVELQEERRGLMSQLEEKERRLQTSEAALSSSQAEVASLRQETVAQAALLTEREERLHGLEMERRRLHNQLQELKGNIRVFCRVRPVLPGEPTPPPGLLLFPSGPGGPSDPPTRLSLSRSDERRGTLSGAPAPPTRHDFSFDRVFPPGSGQDEVFEEIAMLVQSALDGYPVCIFAYGQTGSGKTFTMEGGPGGDPQLEGLIPRALRHLFSVAQELSGQGWTYSFVASYVEIYNETVRDLLATGTRKGQGGECEIRRAGPGSEELTVTNARYVPVSCEKEVDALLHLARQNRAVARTAQNERSSRSHSVFQLQISGEHSSRGLQCGAPLSLVDLAGSERLDPGLALGPGERERLRETQAINSSLSTLGLVIMALSNKESHVPYRNSKLTYLLQNSLGGSAKMLMFVNISPLEENVSESLNSLRFASKVNQCVIGTAQANRK
In the case of B1, in assay [2], the binding entry was “binds”.
